Results of single-concentration screens

Source: ChEMBL document CHEMBL3988442, “University of Dundee, Small-Polar-MMV Screening Library” (2021).

Leishmania in macrophages: 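Cell assay of Leishmania donovani living inside macrophages; the read-out is not stated. Concentration: 30 µM. The record gives no direction; compounds that gave an IC50 in retests scored well above the rest, so higher reads as stronger inhibition. About 69,000 compounds were tested under these conditions; 1.5% (about 1,000) showed 50% or more at least once.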
Toxoplasma: 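Assay of Toxoplasma gondii numbers, read through their beta-galactosidase reporter with a colour substrate. Compounds at 10 µM. Higher reads as fewer parasites (inferred from which compounds were picked for retests). Size under these conditions: about 67,000 compounds, about 260 of them at 50% or above in at least one test.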

The filed quantity is “Percent Effect” (%).
The record does not define 0% and 100%; most values in the screen are far below 50% and negative numbers occur (in some assays of this library far below -100).
The compounds are a random part of those screened.
Two or more numbers in one place are separate tests of the same structure; such repeats can differ widely.

O=c1cc(Cn2cncn2)nc2n1CCCN(CC1CCOCC1)C2 gave Leishmania in macrophages: 3.914%; Toxoplasma: 2.044%. With COc1c(C2CCCN2C(=O)c2csc(C3CC3)n2)c(C)nn1C (stereo not given) the screen gave Leishmania in macrophages: -12.87%; Toxoplasma: 12.39%. Result for Cc1ccc(-c2nnc(CNCCn3cccn3)o2)cc1 was Leishmania in macrophages: -28.5%; Toxoplasma: 2.461%. For Cc1nonc1C1CCCN1C(=O)CCc1cc2n(n1)CCCNC2 (stereo not given) the result was Leishmania in macrophages: 21.97%; Toxoplasma: -22.15%. For CCOc1cccc2c1OCC(=O)N(c1ccc(N(C)C)cc1)C2 the result was Leishmania in macrophages: 32.01%; Toxoplasma: 20.02%.

For O=C(O)C(F)(F)F.O=C(O)C(F)(F)F.[H][C@@]12C[C@H](C(=O)NC(C)C)CN(Cc3ccc4ccccc4n3)[C@]1([H])CCO2 the result was Leishmania in macrophages: 7.634%; Toxoplasma: -21.34%. Result for O=C(NCc1ccncc1)c1nc2c(o1)CN(C(=O)c1cccnc1)C2.O=C(O)C(F)(F)F.O=C(O)C(F)(F)F was Leishmania in macrophages: 12.3%; Toxoplasma: 1.183%. c1ccc(C2CCCN2C2CCSCC2)nc1 (stereo not given) gave Leishmania in macrophages: 16.97%; Toxoplasma: 10.48%. With Cc1cccc(OCCC(=O)N2CCN(CC(=O)NC3CC3)CC2)c1C the screen gave Leishmania in macrophages: 6.303%; Toxoplasma: 15.11%. Result for O=c1cc2c(nn1CN1CCC(c3ccccc3)CC1)CCC2 was Leishmania in macrophages: 46.77% & 5.169%; Toxoplasma: 8.839%.

O=C(O)C(F)(F)F.[H][C@@]12CCN(CC(C)C)C[C@@]1([H])[C@H](C(=O)N1CCCO1)CCO2 gave Leishmania in macrophages: -13.74%; Toxoplasma: -6.711%. Result for [H][C@]12CCN(C(=O)C3CCCO3)[C@@]1([H])CCC(=O)N2Cc1ccncc1 (stereo not given in full) was Leishmania in macrophages: 12.38%; Toxoplasma: -2.51%. For O=C(Cc1ccc2c(c1)CCO2)N1CCCC1Cn1cccn1 (stereo not given) the result was Leishmania in macrophages: 32.47%; Toxoplasma: 3.273%. For CCN(C)CC(=O)N1CCC(c2cc(N3CCOCC3)nc(C)n2)CC1 the result was Leishmania in macrophages: -5.475%; Toxoplasma: -0.6747%. Cc1ccc(C(=O)NC2CCN(C(C)C)C2)c(=O)[nH]1 (stereo not given) read Leishmania in macrophages: 39.11%; Toxoplasma: -1.783%.

Result for CC(=O)NCC(=O)N1CCC2(CC1)NC(=O)CC2c1cccnc1.O=C(O)C(F)(F)F (stereo not given) was Leishmania in macrophages: 27.63%; Toxoplasma: 7.344%. For CN(C)CCN(CC1CCCO1)S(=O)(=O)NCc1ccccc1 (stereo not given) the result was Leishmania in macrophages: -23.36%; Toxoplasma: -36.79%. Result for O=C(c1ccc[nH]1)N1CCc2ccc(S(=O)(=O)N3CCOCC3)cc2C1 was Leishmania in macrophages: -1.46%; Toxoplasma: 0.833%. CCN1CCC(CC(=O)NCc2nc(C)cc(C)n2)CC1 read Leishmania in macrophages: 13.73%; Toxoplasma: 16.25%. Cn1ccnc1CN1CC[C@H](O)[C@@H](n2ccc(=O)[nH]c2=O)CC1 gave Leishmania in macrophages: -10.97%; Toxoplasma: -36.54%.

For Cl.OC(CNCc1ccccc1C(F)(F)F)c1ccccc1 (stereo not given) the result was Leishmania in macrophages: 22.05%; Toxoplasma: -0.1763%. Result for Cc1nc(COc2ccc(S(=O)(=O)N(C)C)cc2)sc1C was Leishmania in macrophages: -23.17%; Toxoplasma: -9.702%.

2 of the entries, repeated:

| structure | Leishmania in macrophages | Toxoplasma |
|---|---|---|
| `Cc1nonc1C1CCCN1C(=O)CCc1cc2n(n1)CCCNC2` (stereo not given) | 21.97% | -22.15% |
| `Cn1ccnc1CN1CC[C@H](O)[C@@H](n2ccc(=O)[nH]c2=O)CC1` | -10.97% | -36.54% |